# No constants are given. Whether binding was seen depends on the method and setting.
# B1: Bacillus subtilis acetyltransferase AcuA (enzyme, UniProt P39065 1-210, looked up)
# chain: MEHHKTYHSANIKTATGSLLIEGPVSPEDLAGYEFHKDLTAFRPPREQHEALVDIAGLPEGRIIIARDGRTIVGYVTYLYPDPLERWSEGNMEDLIELGAIEVAPDYRGCAVGKTLLTVSMMDEQMENYIVMTTEYYWHWDLKGMKKDVWEYRKIMEKMMNAGGLVWFATDEPEISSHPANCLMARIGKNVSQESIEQFDRLRFYHRYMY
# notes: GNAT-related lysine acetyltransferase AcuA, Bacillus subtilis, UniProt P39065; synthetic gene codon optimized for E. coli; also called AcuA wildtype; AcuA WT; source: E. coli BL21 (DE3), pET45b(+), purified (HisTrap FF, Ni2+)
# Experiments:
# [1] = biological target: Bacillus subtilis acetyltransferase AcuA (Bacillus subtilis) (UniProt P39065); experiment: SEC; analytical SEC of the preformed equimolar AcsA•AcuA complex pretreated with a tenfold molar excess of acetyl-CoA (excess also varied), 30 min at room temperature; fractions checked by anti-AcK immunoblot and Ponceau S; both purified
# [2] = biological target: Bacillus subtilis acetyltransferase AcuA (Bacillus subtilis) (UniProt P39065); experiment: SEC; analytical SEC of the single proteins, Superdex 200 10/300 GL, 50 mM Tris/HCl pH 8, 50 mM KCl, 2 mM β-mercaptoethanol; 100 µl of 50–100 µM injected; MW from a calibration curve; both purified
binder,measurement,setting,value
B1,binding,[1],no binding (tested: 100 µl of 50–100 µM injected)
same,binding,[2],no binding (tested: 100 µl of 50–100 µM injected)
